Paper PMC4002113
Results are given in words; binding and its absence hold for the method and conditions named. Some results given as binding are weak or reduced against the parent protein; the word gives no strength. For part of these data: Where a sequence is shown, tags or fusion partners need not be part of it. Each block holds one binder with its values, some of them ahead of it.

Tests used:
[1] = molecular target: FAF1-UBX(550–649) (murine) (UniProt P54731); test: cross-linking; 15 μM FAF1 or truncation in SEC buffer with ethyl glycol bissuccinimidyl succinate (EGS), 15 min at room temperature, stopped with Tris, SDS-PAGE; both purified
[2] = molecular target: C-terminally His-tagged full-length p97 (residues 1–806) (murine) (UniProt Q01853); test: condition: p97 in the cell at 10–50 μM, titrant at 7.5 to 10 times the cell protein concentration; ITC; full-length p97 in the cell at 10–50 μM, FAF1 or FAF1 truncation as titrant at 7.5 to 10 times the cell concentration; 20 mM HEPES, 150 mM KCl, pH 7.4; 30 °C; average of two measurements; both purified
[3] = molecular target: C-terminally His-tagged full-length p97 (residues 1–806) (murine) (UniProt Q01853); test: SEC; separately purified p97, FAF1 and UN mixed in a ratio of 1:1:0.5 (with or without UN) at 50 μM, 15 min on ice, analytical Superose 6; fractions analysed by SDS-PAGE; both purified

binding [1]: no binding (tested: 15 μM)
B1: FAF1-UBX(550–649) (domain or fragment, UniProt P54731 550-649)
chain: EAIRLSLEQALPPEPKEENAEPVSKLRIRTPSGEFLERRFLASNKLQIVFDFVASKGFPWDEFKLLSTFPRRDVTQLDPNKSLLEVNLFPQETLFLQAKE

binding [2]: no binding
B2: FAF1-CC(491–560) (domain or fragment, UniProt P54731 491-560)
chain: QEDIKDEDEREARENVKREQDEAYRLSLEADRAKREAHEREMAEQFRLEQIRKEQEEEREAIRLSLEQAL

binding [3]: binds
B3: N-terminally His-tagged full-length FAF1 (protein, UniProt P54731 1-649)
chain: MASNMDREMILADFQACTGIENIDEAITLLEQNNWDLVAAINGVIPQENGILQSDFGGETMPGPTFDPASHPAPASTPSSSAFRPVMPSRQIVERQPRMLDFRVEYRDRNVDVVLEDSCTVGEIKQILENELQIPVPKMLLKGWKTGDVEDSTVLKSLHLPKNNSLYVLTPDLPPPSSSSHAGALQESLNQNFMLIITHREVQREYNLNFSGSSTVQEVKRNVYDLTSIPVRHQLWEGWPASATDDSMCLAESGLSYPCHRLTVGRRTSPVQTREQSEEQSTDVHMVSDSDGDDFEDASEFGVDDGEVFGMASSTLRKSPMMPENAENEGDALLQFTAEFSSRYGDCHPVFFIGSLEAAFQEAFYVKARDRKLLAIYLHHDESVLTNVFCSQMLCAESIVSYLSQNFITWAWDLTKDTNRARFLTMCNRHFGSVIAQTIRTQKTDQFPLFLIIMGKRSSNEVLNVIQGNTTVDELMMRLMAAMEIFSAQQQEDIKDEDEREARENVKREQDEAYRLSLEADRAKREAHEREMAEQFRLEQIRKEQEEEREAIRLSLEQALPPEPKEENAEPVSKLRIRTPSGEFLERRFLASNKLQIVFDFVASKGFPWDEFKLLSTFPRRDVTQLDPNKSLLEVNLFPQETLFLQAKE
modifications: NanoTemper495-N-hydroxysuccinimide blue/red dye label (in the MST only)
